PubChem BioAssay AID1159578 | Peter MacCallum Cancer Centre – 2015
Screen: 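Knock-downs that alter how fast lymphatic endothelial cells migrate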 (primary screen). Cells: human lymphatic endothelial cells. Reagents: siRNA pool against human genes, 40 nM. Time to read-out: 48 h after transfection. Read-out: 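Cells stained with dye and imaged after a scratch; covered wound area and nuclei counted, duplicates averaged, migration set against mock wells and turned into a robust z-score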. Reading the numbers: migration robust z-score: higher = faster migration into the scratch; nuclei per well: higher = more cells in the well. Rule for the call: 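Migration changed when robust z exceeds 2 or falls below -2 and mean nuclei number is at least 3300; otherwise not called changed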. Meaning of the calls: active = migration changed; inactive = no migration change, or too few cells.
Shown is one part, drawn at random, of about 18,000 deposited reagents. Over the whole deposit, about 1,030 (5.7%) are marked active. 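Inactive calls also include pools with fewer than 3300 nuclei, whose migration was not assessed.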 Raw values are not corrected between plates. Unmarked entries are inactive. Further read-outs or replicates are left out here.

After knock-down of RBP1, the screen gave migration robust z-score 0.36; migration class with cell-count check migration z between -2 and 2; enough cells; nuclei per well, duplicate mean 7328.
Depletion of TUT4 resulted in: migration robust z-score 0.88; migration class with cell-count check under 3300 nuclei; migration not judged; nuclei per well, duplicate mean 2988.
Against ZNF266, the values are migration robust z-score 0.78; migration class with cell-count check migration z between -2 and 2; enough cells; nuclei per well, duplicate mean 4730.
Against CCDC97, the values are migration robust z-score -0.02; migration class with cell-count check migration z between -2 and 2; enough cells; nuclei per well, duplicate mean 6705.
Knock-down of DDX1 gave: migration robust z-score -0.39; migration class with cell-count check migration z between -2 and 2; enough cells; nuclei per well, duplicate mean 4904.
Knock-down of C11orf65 resulted in: migration robust z-score 0.8; migration class with cell-count check migration z between -2 and 2; enough cells; nuclei per well, duplicate mean 4605.
After knock-down of BORCS8-MEF2B, the screen gave migration robust z-score -0.68; migration class with cell-count check migration z between -2 and 2; enough cells; nuclei per well, duplicate mean 4362.
Against HTN3, the entry reads migration robust z-score -0.88; migration class with cell-count check migration z between -2 and 2; enough cells; nuclei per well, duplicate mean 4535.
With knock-down of SLC35A5, the record shows migration robust z-score 0.36; migration class with cell-count check migration z between -2 and 2; enough cells; nuclei per well, duplicate mean 4848.
For H4C5, the values are migration robust z-score -0.18; migration class with cell-count check migration z between -2 and 2; enough cells; nuclei per well, duplicate mean 5893.
After knock-down of REEP4, the screen gave migration robust z-score 2.34 (active); migration class with cell-count check migration z above 2; enough cells; nuclei per well, duplicate mean 6095.
Knock-down of UNC80 gave: migration robust z-score -1.06; migration class with cell-count check migration z between -2 and 2; enough cells; nuclei per well, duplicate mean 5012.
PRDM14 scored migration robust z-score 1.14; migration class with cell-count check migration z between -2 and 2; enough cells; nuclei per well, duplicate mean 6114.
Silencing of SLC24A4 came out at: migration robust z-score 0.94; migration class with cell-count check migration z between -2 and 2; enough cells; nuclei per well, duplicate mean 5768.
Depletion of BRD2 came out at: migration robust z-score -1.38; migration class with cell-count check migration z between -2 and 2; enough cells; nuclei per well, duplicate mean 3770.
ISG20L2 gave migration robust z-score 0.47; migration class with cell-count check migration z between -2 and 2; enough cells; nuclei per well, duplicate mean 6494.
Knock-down of PON2 gave: migration robust z-score -0.34; migration class with cell-count check migration z between -2 and 2; enough cells; nuclei per well, duplicate mean 4794.
Depletion of ZNF385D gave: migration robust z-score -0.44; migration class with cell-count check migration z between -2 and 2; enough cells; nuclei per well, duplicate mean 5679.
POLR3H gave migration robust z-score 1.84; migration class with cell-count check migration z between -2 and 2; enough cells; nuclei per well, duplicate mean 5844.
After knock-down of PTPRM, the screen gave migration robust z-score 0.16; migration class with cell-count check migration z between -2 and 2; enough cells; nuclei per well, duplicate mean 5424.
After knock-down of TMEFF1, the record shows migration robust z-score -0.33; migration class with cell-count check migration z between -2 and 2; enough cells; nuclei per well, duplicate mean 5633.

Just “migration class with cell-count check” (2 entries from above):
RBP1 = migration z between -2 and 2; enough cells
TUT4 = under 3300 nuclei; migration not judged
